In PubChem BioAssay AID445 (National Center for Advancing Translational Sciences (NCATS), 2006):
This is one part of the list. Further columns of the screen follow, without active or inactive calls. The list favours compounds with an active or inconclusive main result. Potencies come from curve fits of mixed quality, noted in brackets.

Assay: IkB Signaling
Details: ABC-DLBCL IkBa-CBG/CBR dual luciferase ratio (green luciferase fused to IkBa over red control in OCI-Ly3 lymphoma cells), 4 h
Outline: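 Curves were fitted separately to fusion (green), unfused (red) and ratio luminescence, then classed by r2, magnitude and activity. Cells: OCI-Ly3, 4 h compound plus doxycycline at 37C; 10 uM MG-132 defined full response.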

[1] = measured here: control luc red channel unless noted

Question: Which AC50 [1] does the source give for Cc1ccc(C)c(N2CCN(C(=O)c3cccn3-c3nnc(N4CCCCC4)s3)CC2)c1 here?
Answer: 39.8 µM [falling, partial curve]

Question: Which AC50 [1] does the source give for COc1ccccc1CCNC(=O)CCc1c(C)c2cc3c(C)coc3cc2oc1=O here?
Answer: 39.8 µM [falling, single point]

Question: With CCN1CCN(CCCNC(=O)c2cc3c(s2)-c2c(C)cccc2OC3)CC1 as the compound, how does the AC50 [1] read?
Answer: 31.6 µM [falling, single point]

Question: For Cc1ccc(Nc2cc(C(=O)NC3CCCC3)c3ccccc3n2)c(C)c1, which AC50 [1] is on record?
Answer: 15.8 µM [falling, single point]

Question: For CN(Cc1ccccc1)C(=O)Cn1ncc2c3ccccc3n(Cc3cccc(Cl)c3)c2c1=O, which AC50 [1] is on record?
Answer: 10 µM [falling, partial curve]

Question: With O=S(=O)(NCCOCC(F)(F)C(F)F)c1ccc2oc3ccccc3c2c1 as the compound, how does the AC50 [1] read?
Answer: 10 µM [falling, partial curve]

Question: For COc1cc(C2c3c(oc4ccccc4c3=O)C(=O)N2Cc2ccccc2Cl)ccc1O (configuration not stated), which AC50 [1] is on record?
Answer: 39.8 µM [falling, single point]

Question: With Cc1ccc2nc(-c3ccccc3)cc(C(=O)O)c2c1 as the compound, how does the AC50 [1] read?
Answer: 20 µM [falling, partial curve]

Question: Which AC50 [1] does the source give for Cc1ccc2nc(SCc3nc(-c4ccccc4C)no3)[nH]c2c1 here?
Answer: 31.6 µM [falling, single point]

Question: Which AC50 [1] does the source give for Cc1ccc(C(=O)CCNc2ccccc2)o1 here?
Answer: 25.1 µM [falling, single point]

Question: For Cc1ccccc1Cn1c(Oc2ccccc2F)nc2c1c(=O)n(C)c(=O)n2C, which AC50 [1] is on record?
Answer: 15.8 µM [falling, partial curve]

Question: Which AC50 [1] does the source give for CS(=O)(=O)N1CCc2cc(S(=O)(=O)Nc3ccc4oc5c(c4c3)CCCC5)ccc21 here?
Answer: 15.8 µM [falling, partial curve]

Question: For Cc1ccc(N2CCN(C(=O)C3CCC(CNS(=O)(=O)c4ccc(Br)s4)CC3)CC2C)cc1 (configuration not stated), which AC50 [1] is on record?
Answer: 6.31 µM [falling, partial curve]

Question: With COc1ccccc1NC(=O)c1ccccc1NC(=O)c1ccccc1 as the compound, how does the AC50 [1] read?
Answer: 0.126 µM [falling, full curve, poor fit]

Question: For Cc1ccc(CN(C(=O)COc2ccc(C(C)(C)C)cc2)C2CCS(=O)(=O)C2)o1 (configuration not stated), which AC50 [1] is on record?
Answer: 25.1 µM [falling, single point]

Question: For COc1ccc(-c2c3c(nc4sc(C(=O)Nc5ccc(Cl)cc5)c(N)c24)CC(C)(C)CC3=O)cc1, which AC50 [1] is on record?
Answer: 15.8 µM [falling, partial curve]

Question: For CCC(=NC(C)c1ccccc1)c1c(O)n(C)c(=O)n(C)c1=O (configuration not stated), which AC50 [1] is on record?
Answer: 12.6 µM [falling, partial curve]

Question: For CCn1ccc2cc(S(=O)(=O)N3CCC(C(=O)NCCc4ccc(SC)cc4)CC3)ccc21, which AC50 [1] is on record?
Answer: 5.01 µM [falling, full curve]

Question: With CCc1cccc(C)c1NC(=O)CN1C(=O)c2c(c3ccccc3n2C)C1c1ccc(OC)cc1 (configuration not stated) as the compound, how does the AC50 [1] read?
Answer: 25.1 µM [falling, partial curve]

Question: Which AC50 [1] does the source give for O=C1C(Cl)=C(N2CCOCC2)C(=O)N1c1cccc(Cl)c1 here?
Answer: 10 µM [falling, partial curve]

Question: Which AC50 [1] does the source give for COc1ccc(-c2nc(CCNC(=O)c3cccs3)cs2)cc1OC here?
Answer: 20 µM [falling, single point]

Question: For CCOc1ccc(C(=O)Nc2ccc(-c3nc4cc(C(C)C)ccc4o3)cc2)cc1Cl, which AC50 [1] is on record?
Answer: 2 µM [falling, full curve]

Question: With CCc1cccc(NC(=O)c2nc(-c3ccncc3)no2)c1 as the compound, how does the AC50 [1] read?
Answer: 1 µM [falling, partial curve]

Question: Which AC50 [1] does the source give for CCOC(=O)c1cccc(NC(=O)CN(c2ccc(OC)cc2)S(=O)(=O)c2c(C)noc2C)c1 here?
Answer: 7.94 µM [falling, partial curve]

Question: Which AC50 (measured here: IkB-luc green channel) does the source give for CCOC(=O)Cc1nnc2c(Nc3ccccc3F)nc3nonc3n12 here?
Answer: 39.8 µM [falling, single point]

Question: What about the AC50 (measured here: control luc red channel) of the same compound?
Answer: 25.1 µM [falling, partial curve]

Question: For Fc1cccc(NCc2cccn2-c2nnc(N3CCOCC3)s2)c1, which AC50 [1] is on record?
Answer: 1.58 µM [falling, partial curve]

Question: With Cc1ccc(NCc2cccn2-c2nnc(N3CCC(C(=O)NCCc4ccccc4)CC3)s2)cc1 as the compound, how does the AC50 [1] read?
Answer: 0.158 µM [falling, full curve]

Question: With CCNC(=O)c1cnc2sc(N3CCC(C)CC3)nn2c1=O as the compound, how does the AC50 [1] read?
Answer: 10 µM [rising, full curve]

Question: For Cc1ccc2c(c1)N(C(=O)N1CCC(C(=O)NCCC3=CCCCC3)CC1)CC(C)O2 (configuration not stated), which AC50 [1] is on record?
Answer: 31.6 µM [falling, single point]

Question: With Cc1c(C(=O)N2CCCC2)oc2c1-c1nn(CC(=O)NCc3cccc(F)c3)cc1CC2 as the compound, how does the AC50 [1] read?
Answer: 25.1 µM [falling, single point]

Question: For O=C(Nc1cccc(Cl)c1)c1ccc2nc(Cc3ccccc3)oc2c1, which AC50 [1] is on record?
Answer: 31.6 µM [falling, partial curve]

Question: Which AC50 [1] does the source give for Cc1ncc(COC(=O)C(C)C)c2cc(C(=O)Nc3ccccc3C(F)(F)F)c(=O)oc12 here?
Answer: 39.8 µM [falling, single point]

Question: Which AC50 [1] does the source give for CCCCn1c(CNC(=O)C23CC4CC(CC(C4)C2)C3)nnc1SCC(=O)Nc1ccccc1 here?
Answer: 31.6 µM [falling, single point]

Question: Which AC50 [1] does the source give for CCOc1ccc(CCNc2ncnc3onc(-c4ccc(F)cc4)c23)cc1OCC here?
Answer: 39.8 µM [falling, single point]

Question: With Cc1cccc(N2C(=O)CS(=O)(=O)C23C(=O)N(C)c2ccccc23)c1 (configuration not stated) as the compound, how does the AC50 [1] read?
Answer: 39.8 µM [falling, single point]

Question: For Nc1c(NC2CCCCC2)c2ccccc2oc1=O, which AC50 [1] is on record?
Answer: 12.6 µM [falling, partial curve]

Question: For CC1=C(C(N)=O)C(c2cccc(F)c2)n2nc(SCc3ccccc3)nc2N1 (configuration not stated), which AC50 [1] is on record?
Answer: 5.01 µM [rising, single point]

Question: Which AC50 [1] does the source give for NC(=O)SCC(=O)Nc1cccc(Cl)c1 here?
Answer: 12.6 µM [falling, partial curve]

Question: With CCc1ccc(C(=O)c2cnc3ccc(C)cc3c2S(=O)(=O)c2ccc(OC)cc2)cc1 as the compound, how does the AC50 [1] read?
Answer: 0.251 µM [falling, full curve]

Question: Which AC50 [1] does the source give for CCCCc1ccc(C(=O)Nc2ccc3nc(N(CC)CC)cc(C)c3c2)cc1 here?
Answer: 0.251 µM [falling, full curve]

Question: With O=C(CCCn1c(=O)c2sccc2n(Cc2ccc(F)cc2Cl)c1=O)NCc1ccc2c(c1)OCO2 as the compound, how does the AC50 [1] read?
Answer: 0.00501 µM [falling, full curve, poor fit]
